The values are deposited in ChEMBL (CHEMBL3988442, “University of Dundee, Small-Polar-MMV Screening Library” (2021)).

T. brucei: 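Whole-parasite assay of Trypanosoma brucei over 72 hours; the read-out is not stated. Tested at 30 µM. The record gives no direction; compounds that gave an IC50 in retests scored well above the rest, so higher reads as stronger inhibition. Values scatter widely below zero; nearly all retest evidence comes from the higher of the two concentrations used. Size under these conditions: about 64,000 compounds, about 940 of them at 50% or above in at least one test.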
Toxoplasma: 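Assay of Toxoplasma gondii numbers, read through their beta-galactosidase reporter with a colour substrate. Concentration: 10 µM. The record gives no direction; the compounds picked for IC50 retests had high values, so higher reads as fewer parasites. Of about 67,000 compounds tested this way, about 260 (0.38%) reached 50% or more in at least one test.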

Values are the deposited “Percent Effect”, in %.
The controls that fix the scale are not given in the record; negative values are as filed.
This is an unselected part of the compounds tested.

CCCc1nn(C2CCN(C3CC3)C2=O)c(=O)o1 (stereo not drawn) gave T. brucei: -14.76%; Toxoplasma: 11.28%. Result for Fc1ccc2[nH]c(CO[C@H]3CN(CC4CC4)C[C@H]3F)nc2c1 was T. brucei: -4.535%; Toxoplasma: -0.5206%. For Cc1cccc(Sc2nccn(C)c2=O)c1 the result was T. brucei: 7.443%; Toxoplasma: -2.841%. CN(C)Cc1nc(C(C)(C)NC(=O)c2ccnn2C)no1 read T. brucei: -27.75%; Toxoplasma: -6.748%. Cc1nc(C)n(C2CCCN(C(=O)c3cccc4cn[nH]c34)C2)n1 (stereo not drawn) read T. brucei: 5.005%; Toxoplasma: 0.6948%.

Cc1cc(C)n(NC(=O)c2ccccc2F)c(=O)c1 read T. brucei: -21.86%; Toxoplasma: 7.139%. Result for CS(=O)(=O)c1cnc(C2CCCC2)nc1C1CCCNC1 (stereo not drawn) was T. brucei: -27.5%; Toxoplasma: -18.07%. With CN1CC2(CCCN(Cc3nnc(-c4ccccc4)o3)CC2)OC1=O (stereo not drawn) the screen gave T. brucei: -20.69%; Toxoplasma: 5.695%. With N#CC1(C(=O)N2Cc3cc(-c4cc[nH]n4)ccc3C2c2cnco2)CC1 (stereo not drawn) the screen gave T. brucei: -44.05%; Toxoplasma: -5.124%. With COc1ccc(C2CCCN2C(=O)c2cc3c([nH]c2=O)CCC3)cc1 (stereo not drawn) the screen gave T. brucei: 2.746%; Toxoplasma: -0.2878%.

Result for CCCn1ncc(CN2CCCCC2CCCOC)c1C (stereo not drawn) was T. brucei: 2.842%; Toxoplasma: 11.63%. COc1c(C2CCCN2Cc2c(C)noc2C)c(C)nn1C (stereo not drawn) read T. brucei: -3.228%; Toxoplasma: 16.32%. Result for [H][C@]12CCN(S(=O)(=O)c3ccc(C)cc3)C[C@@]1([H])OCCN(C(C)=O)C2 was T. brucei: -28.78%; Toxoplasma: -5.54%. With O=C(O)C(F)(F)F.O=C(O)C(F)(F)F.[H][C@]12CO[C@@H](CN(C)C)[C@@]1([H])CCN(Cc1ccc(C)o1)C2 the screen gave T. brucei: -27.27%; Toxoplasma: -33.46%. Cc1cc(CC(=O)NCC(O)c2ccc(OC(F)F)cc2)n[nH]1 (stereo not drawn) read T. brucei: -21.38%; Toxoplasma: 1.391%.

O=C(c1cccc2ncccc12)N1CCCC(n2ccnc2)C1 (stereo not drawn) read Toxoplasma: -29.74%. With Cc1ncnc2c1CCN(Cc1cccs1)CC2.O=C(O)C(F)(F)F the screen gave T. brucei: -24.71%; Toxoplasma: 1.068%. Result for O=C(O)C(F)(F)F.[H][C@@]12CCN(Cc3ccc(F)cc3)C[C@@]1([H])[C@H](C(=O)N1CCCCO1)CCO2 was T. brucei: -4.847%; Toxoplasma: 73.44%. With [H][C@]12CC[C@](O)(c3cccc(OC)c3)[C@@]1([H])CN(C(=O)c1ccn(C)n1)C2 the screen gave T. brucei: 1.75%; Toxoplasma: -8.878%. CCN(Cc1nccn1C)C1CCN(c2ccccc2)C1=O (stereo not drawn) gave T. brucei: -2.187%; Toxoplasma: 2.639%.

Result for COCCN1CCCN(C(=O)c2oc(C)nc2C)CC1 was T. brucei: -0.7741%; Toxoplasma: -3.688%. With O=C(c1ccc(SC(F)F)cc1)N1CCOCC1c1ncon1 (stereo not drawn) the screen gave T. brucei: -8.168%; Toxoplasma: -10.07%. CCc1nc(C)sc1CN1CC[C@](O)(CC)[C@H](O)C1 read T. brucei: -26.77%; Toxoplasma: -9.255%. With [H][C@@]12CCN(C(=O)N(C)C)[C@]1([H])CCC(=O)N2CCOC the screen gave T. brucei: -17.77%; Toxoplasma: -2.032%. For CC(C)(C)OC(=O)N1CCn2c(nnc2C2CCCNC2)C1 (stereo not drawn) the result was T. brucei: -6.207%; Toxoplasma: -15.25%.

For COc1ccc(CN(C)CC2(O)CCN(C(=O)c3cccn3C)C2)cc1 (stereo not drawn) the result was T. brucei: -37.87%; Toxoplasma: 9.801%. With COc1ccc(CC(=O)N2CCN(Cc3ccco3)C[C@@H]2C)cc1 the screen gave T. brucei: 4.877%; Toxoplasma: 19.54%. With OC(CNC1CCOCC1)c1cccc(OCc2ccccc2)c1 (stereo not drawn) the screen gave T. brucei: -36.97%; Toxoplasma: 6.488%. Result for CC(C)c1n[nH]c(C2CN(Cc3ncc[nH]3)CCO2)n1 (stereo not drawn) was T. brucei: -11.76%; Toxoplasma: 5.42%. CC(C)c1ccc(CC(=O)N2CCCC3(CN(C)C(=O)O3)C2)cc1 (stereo not drawn) gave T. brucei: -36.52%; Toxoplasma: 24.72%.

CN(CC(=O)N(C)C1CCN(CC2CCOC2)CC1)c1ccccc1 (stereo not drawn) gave T. brucei: 39.79%; Toxoplasma: -0.5288%. For Cc1ccc(C)c(C(NC(=O)C(C)(C)C)c2cccnc2)c1 (stereo not drawn) the result was T. brucei: 4.172%; Toxoplasma: -0.5543%. For Cc1noc2nc(C3CCCN(Cc4ccncc4)C3)cc(C(F)F)c12 (stereo not drawn) the result was T. brucei: 1.13%; Toxoplasma: -18.61%.

3 of the entries, repeated:

CC(C)c1ccc(CC(=O)N2CCCC3(CN(C)C(=O)O3)C2)cc1 (stereo not drawn) read T. brucei: -36.52%; Toxoplasma: 24.72%.
Cc1cccc(Sc2nccn(C)c2=O)c1 read T. brucei: 7.443%; Toxoplasma: -2.841%.
CCc1nc(C)sc1CN1CC[C@](O)(CC)[C@H](O)C1 read T. brucei: -26.77%; Toxoplasma: -9.255%.